Laboratory results reported in PubChem BioAssay AID1487 (National Center for Advancing Translational Sciences (NCATS), 2009).
Where “and” joins values, the source holds several entries; their conditions need not be identical. Identical values can stand only once. The list shows a part of the results. The main result of the screen is listed elsewhere. These columns were measured beside it and carry no call. The list favours compounds with an active or inconclusive main result. Words in brackets tell the shape of the fitted curve; partial curves, single points and poor fits give uncertain potencies.

Test: qHTS Assay for Modulators of Lamin A Splicing
Conditions: HeLa LMNA splicing GFP/RFP minigene ratio, 48 h
Method in brief: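 Read-out is the ratio of GFP to DsRed2 object intensity, acquired by 488 nm laser-scanning cytometry on HeLa lamin A-EGFP minigene reporter cells. Compound incubation 48 hrs at 37 °C in Opti-MEM with 2% FBS; DMSO 0.5% final.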

[1] = measured here: RFP viability control channel
[2] = measured here: GFP splicing reporter channel

Structure (SMILES)	AC50 [1]	AC50 [2]
BrC(=C\c1ccccc1)/C=N/N1CCN(c2ccccn2)CC1	11.2 µM [rising, single point]	
CCSc1nnc(-c2ccccc2SC)o1	8.91 µM [rising, partial curve]	10 µM [rising, partial curve]
COCCCNC(=O)C1CCCN(c2nn3cc(-c4ccc(C)cc4)nc3s2)C1 (stereo unspecified)	14.1 µM [rising, single point]	
CCCCCn1ccc(=N)cc1	22.4 µM [rising, single point]	12.6 µM [rising, partial curve]
CSc1nnc(C)c(/C=C/Nc2ccc(C)cc2)n1	12.6 µM [rising, partial curve]	17.8 µM [rising, single point]
O=C(Nc1ccc(SC(F)F)cc1)c1ccc2nccnc2c1	15.8 µM [rising, partial curve]	
CCc1ccc(NC(=O)N2CCN(C(=O)c3nsc4ccccc34)CC2)cc1		0.501 µM [rising, single point]
O=c1c(-c2ccccc2)nc2cnc(Nc3ccccc3)nc2n1Cc1cccs1	12.6 µM [falling, single point]	17.8 µM [falling, partial curve, poor fit]
CC1(C)CC(=O)C2=C(C1)OC(N)=C(C#N)C21C(=O)N(CN2CCOCC2)c2ccccc21 (stereo unspecified)	15.8 µM [rising, single point]	17.8 µM [rising, single point]
COc1cc(Cl)c(C)cc1NC(=O)c1cnc2c(-c3cccc(C)c3)c(C)nn2c1C	0.00447 µM [falling, full curve, poor fit]	
COCCOc1nc2c(c(=O)n(C)c(=O)n2C)n1Cc1cccc(OC)c1	14.1 µM [rising, partial curve]	17.8 µM [rising, partial curve, poor fit]
COc1cc(S(C)=O)ccc1-c1nc2ncccc2[nH]1 (stereo unspecified)	0.224 µM [rising, partial curve, poor fit]	
CCOC(=O)c1noc2nc(C)n(Cc3ccc([N+](=O)[O-])cc3)c(=O)c12	6.31 µM [falling, partial curve, poor fit]	0.158 µM [falling, full curve]
NN/C(=C\[N+](=O)[O-])Nc1ccccc1	12.6 µM [falling, single point]	28.2 µM [falling, single point]
CCn1c(=O)cc(SCC(=O)N2CCN(c3ccccc3F)CC2)c2ccccc21	1.12 µM [rising, full curve]	1 µM [rising, full curve]
O=C(NCc1cccc(Cl)c1)C1CCCN(c2ncnc3onc(-c4ccc(F)cc4)c23)C1 (stereo unspecified)		8.91 µM [falling, partial curve, poor fit]
CC(NC(=O)c1ccco1)C(c1cccs1)N1CCN(c2ccccc2F)CC1 (stereo unspecified)	35.5 µM [rising, single point]	
CC(C)N(C(=O)Cn1c(Cl)nc2ccccc21)C(C)C	0.0447 µM [falling, full curve, poor fit]	0.0355 µM [falling, full curve, poor fit]
CCN1CC(CN(C)Cc2nc(-c3ccco3)oc2C)CC1=O (stereo unspecified)		0.0891 µM [falling, full curve]
CN1CCN(c2nc(-c3cccnc3)nc3ccccc23)CC1	35.5 µM [rising, single point]	35.5 µM [rising, single point]
CCNC(=O)c1c(C)nc2ccccn12		4.47 µM [falling, single point]
C[C@]12CC[C@@H]3c4ccc(O)cc4CC[C@H]3[C@@H]1CC[C@@H]2OC(=O)CCC(=O)O	3.55 µM [falling, full curve, poor fit]	0.0708 µM [falling, full curve]
O=C1/C(=C/c2ccco2)SC(=S)N1C1CCS(=O)(=O)C1 (stereo unspecified)	2.82 µM [rising, partial curve]	
COC(=O)c1cn(Nc2ncc(C(F)(F)F)cc2Cl)c(=O)c2ccccc12	14.1 µM [rising, single point]	
O=C(Nc1ccc(F)cc1)c1ccc(CSc2ccccc2)o1	14.1 µM [rising, partial curve]	
C/C(N)=C(/C#N)C(=O)COC(=O)CNS(=O)(=O)c1ccc(C)cc1	0.0447 µM [falling, full curve, poor fit]	
Cc1sc(-c2ccccn2)nc1OC(=O)c1ccc(F)cc1F	0.562 µM [rising, full curve, poor fit]	

Structure (SMILES)	AC50 [1]	AC50 [2]
COc1ccccc1[C@@H]1C(c2cccc(Cl)c2)=NN(c2ccccc2)[C@H]1C(=O)N1CCOC1=O	12.6 µM [rising, single point]	
CCn1c(SCC(=O)Nc2ccccc2-c2ccccc2)nnc1-c1ccoc1C	20 µM [rising, single point]	31.6 µM [rising, single point]
O=C1CCN(C(=O)/C=C/c2ccccc2)c2ccccc21	22.4 µM [falling, partial curve, poor fit]	
Cc1nc2ccccn2c1C(=O)NNC(=S)Nc1ccc(Cl)cc1	14.1 µM [rising, partial curve]	8.91 µM [rising, partial curve]
COc1ccc2[nH]cc(CCCN3C(=O)c4ccccc4C3=O)c2c1	0.447 µM [rising, full curve, poor fit]	
CCOc1ccc(C(CC(=O)O)NC(=O)C23CC4CC(CC(C4)C2)C3)cc1OC (stereo unspecified)	0.00501 µM [falling, full curve, poor fit]	
O=C(Cc1cccc2ccccc12)Nc1ccc(OC(F)F)c(Cl)c1	12.6 µM [rising, partial curve, poor fit]	
O=C(CC1C(=O)NCCN1Cc1cccc(Oc2ccccc2)c1)NCc1cccnc1 (stereo unspecified)	0.126 µM [falling, full curve]	22.4 µM [falling, partial curve]
Cc1ccc(S(=O)(=O)c2cn(Cc3ccc(F)cc3)c3cc(N4CCCC4)c(F)cc3c2=O)cc1	0.708 µM [falling, single point]	0.1 µM [falling, single point]
O=C(c1cccnc1)N1N=C(C2CCCCC2)CC1(O)C(F)(F)F (stereo unspecified)	0.0224 µM [falling, full curve]	
CCc1ccccc1NC(=O)C(=O)NCCc1sc(-c2cccc(F)c2)nc1C	0.282 µM [falling, full curve, poor fit]	
CCN(CC)S(=O)(=O)c1cc(NC(=O)C(C)N2CCc3ccccc32)ccc1C (stereo unspecified)		20 µM [falling, single point]
CCOC(=O)N1CCN(C(=O)CSCc2nc(-c3ccccc3C)oc2C)CC1	25.1 µM [rising, single point]	25.1 µM [rising, single point]
O=[N+]([O-])c1cc(CN2CCN(c3ccccc3)CC2)c(O)c2ncccc12	3.16 µM [falling, full curve, poor fit]	3.98 µM [falling, full curve, poor fit]
Clc1cccc(OCCN2CCN(CCOc3cccc(Cl)c3)CC2)c1		35.5 µM [falling, single point]
S=c1nc[nH]c2c1sc1nc(N3CCOCC3)c3c(c12)CCCC3	5.01 µM [rising, single point]	
CC(C)(C(=O)O)c1ccc(C(O)CCCN2CCC(C(O)(c3ccccc3)c3ccccc3)CC2)cc1 (stereo unspecified)	251 nM [falling, full curve, poor fit] and 158 nM [rising, full curve, poor fit]	
O=C(Nc1ccc(F)c(Cl)c1)N1CCC(CN2CCc3ccccc3C2)CC1	22.4 µM [falling, single point]	22.4 µM [falling, single point]
COC(=O)C1(C(=O)OC)Sc2ccccc2C1=O	20 µM [falling, partial curve, poor fit]	
Cc1ccc(N=C2S/C(=C\c3cn(CC(=O)O)c4ccccc34)C(=O)N2C)cc1	35.5 µM [rising, single point]	35.5 µM [rising, single point]
CC#C[C@]1(O)CC[C@H]2C3CCC4=CC(=O)CCC4=C3[C@@H](c3ccc(N(C)C)cc3)C[C@@]21C (stereo partly specified)	5.62 µM [rising, partial curve]	3.98 µM [falling, full curve, poor fit]
C=CCNc1nc(N)c(C(=C(C#N)C#N)c2ccc(Br)cc2)s1	17.8 µM [rising, partial curve]	
O=C(CC(c1ccc(F)cc1)c1ccco1)Nc1nccs1 (stereo unspecified)		1.58 µM [falling, partial curve, poor fit]
CCOc1ccc(NS(=O)(=O)c2ccc(OC)c(NC(=O)c3ccc4c(c3)OCCO4)c2)cc1	10 µM [rising, partial curve]	
CCCCn1c(NC(=O)C2CCCCC2)nc2ccccc21	11.2 µM [rising, partial curve]	
CCOC(=O)C(NC(C)=O)(Nc1ccc(S(N)(=O)=O)cc1)C(F)(F)F (stereo unspecified)	35.5 µM [falling, single point]	
O=C(Cn1nc(-c2ccccc2)nc1-c1ccccc1)OC1CCCCC1	12.6 µM [rising, single point]	11.2 µM [rising, single point]
